PubChem BioAssay AID1259282 | Sanger Institute, 2017
Test: 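siRNA screen across the kinome seeking drug combinations lethal to colorectal cancer cells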 (primary screen). System: DIFI human colorectal cancer cell line. Reagents: siRNA pool against human genes. Treatment: anchor drug at a mild dose (BYL719 1 µM, cetuximab 5 µg/ml, trametinib 10 nM) or DMSO vehicle; exposure time not given. Detection: 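Robust z-score and replicate-mean viability versus non-targeting pool without drug, plus a synergy score for each low-dose anchor drug (BYL719, cetuximab, trametinib)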. Reading the numbers: robust z-score, knock-down alone: higher = more viable cells than typical knock-down; viability, knock-down alone: higher = more viable cells; synergy score with trametinib and synergy score with cetuximab and synergy score with BYL719: higher = stronger combined killing with drug. Call rule: 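a knock-down is called essential if its DMSO robust z-score is under -3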. Meaning of the calls: active = essential (knock-down alone, z below -3); inactive = not essential.
The deposit covers 794 reagents; this is a random part of them. In the full data, 11 (1.4%) are marked active. 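Calls flag knock-downs that lower viability without drug; drug synergy appears only in the synergy scores; exposure time not stated.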 Viability is capped at 1. Not given: the amount of reagent, the time to read-out.

| Gene | robust z-score, knock-down alone | viability, knock-down alone (fraction of control) | synergy score with trametinib | synergy score with cetuximab | synergy score with BYL719 | call |
| --- | --- | --- | --- | --- | --- | --- |
| CIB2 | -0.64 | 0.803 | -0.0529 | -0.0325 | -0.224 | inactive |
| STK32A | 0.715 | 1 | -0.0245 | -0.0292 | -0.124 | inactive |
| MAPKAPK2 | 0.715 | 1 | -0.0453 | 0.0171 | -0.279 | inactive |
| TRIM27 | -0.057 | 0.888 | 0.147 | 0.0565 | 0.0521 | inactive |
| AAK1 | 0.602 | 0.984 | 0.163 | 0.0119 | -0.0442 | inactive |
| PHKG2 | 0.715 | 1 | -0.104 | -0.0709 | -0.201 | inactive |
| TSSK4 | 0.715 | 1 | 0.0992 | 0.0794 | 0.0508 | inactive |
| VRK3 | 0.715 | 1 | -0.0556 | -0.0379 | -0.285 | inactive |
| CDK14 | -0.755 | 0.787 | -0.0131 | -0.156 | -0.143 | inactive |
| TGFBR1 | 0.368 | 0.95 | 0.0523 | 0.0316 | -0.229 | inactive |
| MECOM | 0.715 | 1 | 0.092 | 0.0509 | -0.0782 | inactive |
| ERN2 | 0.715 | 1 | -0.21 | -0.0074 | -0.208 | inactive |
| MARK2 | 0.715 | 1 | 0.159 | 0.12 | -0.102 | inactive |
| EPHA3 | -1.97 | 0.61 | 0.124 | 0.0231 | -0.0509 | inactive |
| PIK3C3 | 0.579 | 0.98 | 0.0714 | -0.0541 | -0.0805 | inactive |
| EPHA1 | 0.681 | 0.995 | 0.164 | 0.00376 | -0.208 | inactive |
| CAMK2N1 | -2.87 | 0.479 | -0.00483 | -0.01 | 0.0151 | inactive |

Part of the list above in another layout.
PHKG2
- robust z-score, knock-down alone: 0.715
- viability, knock-down alone (fraction of control): 1
- synergy score with trametinib: -0.104
- synergy score with cetuximab: -0.0709
- synergy score with BYL719: -0.201
- call: inactive

TSSK4
- robust z-score, knock-down alone: 0.715
- viability, knock-down alone (fraction of control): 1
- synergy score with trametinib: 0.0992
- synergy score with cetuximab: 0.0794
- synergy score with BYL719: 0.0508
- call: inactive

VRK3
- robust z-score, knock-down alone: 0.715
- viability, knock-down alone (fraction of control): 1
- synergy score with trametinib: -0.0556
- synergy score with cetuximab: -0.0379
- synergy score with BYL719: -0.285
- call: inactive

CDK14
- robust z-score, knock-down alone: -0.755
- viability, knock-down alone (fraction of control): 0.787
- synergy score with trametinib: -0.0131
- synergy score with cetuximab: -0.156
- synergy score with BYL719: -0.143
- call: inactive

More entries:
| Gene | robust z-score, knock-down alone | viability, knock-down alone (fraction of control) | synergy score with trametinib | synergy score with cetuximab | synergy score with BYL719 | call |
| --- | --- | --- | --- | --- | --- | --- |
| MAP2K5 | 0.715 | 1 | -0.0286 | -0.176 | -0.0825 | inactive |
| GNE | 0.304 | 0.94 | 0.0861 | 0.0123 | -0.111 | inactive |
| PINK1 | -0.822 | 0.777 | 0.219 | 0.182 | 0.256 | inactive |
| BCKDK | 0.715 | 1 | -0.0876 | -0.189 | -0.362 | inactive |
| RPS6KL1 | 0.715 | 1 | 0.25 | 0.192 | -0.0512 | inactive |
| LIMK2 | 0.715 | 1 | 0.201 | -0.0128 | -0.0517 | inactive |
| MAP3K7 | -0.704 | 0.794 | 0.0739 | 0.13 | 0.0317 | inactive |
| FXN | 0.715 | 1 | -0.0209 | -0.0299 | -0.181 | inactive |
| CSNK1A1L | 0.715 | 1 | -0.358 | -0.394 | -0.362 | inactive |
| STAG2 | 0.715 | 1 | -0.032 | -0.0518 | -0.362 | inactive |
| CALM3 | 0.715 | 1 | -0.0531 | -0.0238 | -0.212 | inactive |
| MAP3K13 | 0.715 | 1 | -0.118 | -0.0949 | -0.207 | inactive |
| TCF7L2 | 0.715 | 1 | -0.0792 | -0.104 | -0.275 | inactive |
| SHPK | -1.34 | 0.702 | -0.121 | 0.0259 | -0.0153 | inactive |
| TTK | 0.0423 | 0.902 | -0.0703 | -0.145 | -0.198 | inactive |
| CDK7 | -0.247 | 0.86 | 0.148 | -0.00754 | -0.133 | inactive |
| HUNK | -2.37 | 0.552 | 0.13 | 0.0877 | 0.0475 | inactive |
